The values below come from article PMC4460818.

Protein sequences, listed by entry. Tags and fused reporters are not part of them. Lines headed by an entry give the natural chain unless they say otherwise; changes in a name come on top. Chains listed by the source or under a name are the forms on record and can include a tag or linker.
UniProt Q15208: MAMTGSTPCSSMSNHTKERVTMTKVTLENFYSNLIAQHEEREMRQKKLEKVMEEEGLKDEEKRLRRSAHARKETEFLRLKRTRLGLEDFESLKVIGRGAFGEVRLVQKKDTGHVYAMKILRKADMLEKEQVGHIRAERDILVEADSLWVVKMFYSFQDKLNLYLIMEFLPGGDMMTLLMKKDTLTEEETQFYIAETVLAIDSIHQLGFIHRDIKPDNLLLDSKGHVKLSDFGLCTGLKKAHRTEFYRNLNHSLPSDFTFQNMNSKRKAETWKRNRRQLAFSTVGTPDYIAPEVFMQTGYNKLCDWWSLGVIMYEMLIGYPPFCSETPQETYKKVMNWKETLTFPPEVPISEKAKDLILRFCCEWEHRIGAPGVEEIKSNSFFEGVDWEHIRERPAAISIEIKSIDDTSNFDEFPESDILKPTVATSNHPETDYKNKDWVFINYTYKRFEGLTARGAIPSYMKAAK
FLAG-NDR1^3A (Q15208, form named): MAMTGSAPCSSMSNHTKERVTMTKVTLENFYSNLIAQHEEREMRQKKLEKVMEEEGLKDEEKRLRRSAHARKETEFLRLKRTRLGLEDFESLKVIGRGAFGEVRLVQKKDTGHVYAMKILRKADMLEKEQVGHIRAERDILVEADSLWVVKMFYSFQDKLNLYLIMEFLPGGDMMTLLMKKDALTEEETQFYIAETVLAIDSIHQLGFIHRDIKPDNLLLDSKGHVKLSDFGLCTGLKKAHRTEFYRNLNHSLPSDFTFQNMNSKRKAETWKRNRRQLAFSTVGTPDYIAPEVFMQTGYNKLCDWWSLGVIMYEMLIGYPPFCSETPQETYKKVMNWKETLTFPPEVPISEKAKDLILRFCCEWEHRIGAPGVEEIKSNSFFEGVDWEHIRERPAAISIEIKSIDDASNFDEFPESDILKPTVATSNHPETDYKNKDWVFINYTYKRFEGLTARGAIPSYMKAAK
FLAG-NDR1^3E (Q15208, form named): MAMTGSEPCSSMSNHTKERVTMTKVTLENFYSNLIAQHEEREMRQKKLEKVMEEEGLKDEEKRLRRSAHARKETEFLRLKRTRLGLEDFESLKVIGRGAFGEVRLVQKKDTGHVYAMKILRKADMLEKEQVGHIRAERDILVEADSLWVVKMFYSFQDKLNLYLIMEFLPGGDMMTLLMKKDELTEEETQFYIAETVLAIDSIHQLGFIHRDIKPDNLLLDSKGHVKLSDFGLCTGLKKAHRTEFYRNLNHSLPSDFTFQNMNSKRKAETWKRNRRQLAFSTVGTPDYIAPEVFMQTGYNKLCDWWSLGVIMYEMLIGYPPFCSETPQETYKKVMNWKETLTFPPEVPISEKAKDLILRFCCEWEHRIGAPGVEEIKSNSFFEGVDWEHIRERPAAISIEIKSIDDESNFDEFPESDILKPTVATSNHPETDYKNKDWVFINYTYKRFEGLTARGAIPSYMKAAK

One assay addresses FLAG-NDR1^3A (human) (UniProt Q15208). The experiment in a line: co-IP; asynchronized 293T cells expressing mCherry-Mob2, GFP-Mob1A and FLAG-NDR1 (WT, 3A or 3E) together; immunoprecipitation with Flag antibody; immunoblot with Flag, GFP and Cherry antibodies.
Another assay addresses FLAG-NDR1^3E (human) (UniProt Q15208). The assay is described as above.
Assay [1] deals with FLAG-NDR1 wild type (human) (UniProt Q15208). The assay is described as above.
Another assay concerns the target LAP-tagged NDR1 (human) (UniProt Q15208). The experiment in a line: co-IP; HeLa cells stably expressing LAP-NDR1, synchronized, mitotic cells with or without the PLK1 inhibitor BI2536; immunoprecipitation with GFP-Trap agarose beads; immunoblot for GFP, actin, Mob1 and Mob2.

No constants are given. Whether binding was seen depends on the method and setting. Binding seen in cells or lysates may run through a third protein. Some binding calls cover weakened binding; strength is not graded here. For some of these results: Where a sequence is shown, tags or fusion partners need not be part of it.

B1: GFP-Mob1A (protein, UniProt Q9H8S9 1-216)
chain: MSFLFSSRSSKTFKPKKNIPEGSHQYELLKHAEATLGSGNLRQAVMLPEGEDLNEWIAVNTVDFFNQINMLYGTITEFCTEASCPVMSAGPRYEYHWADGTNIKKPIKCSAPKYIDYLMTWVQDQLDDETLFPSKIGVPFPKNFMSVAKTILKRLFRVYAHIYHQHFDSVMQLQEEAHLNTSFKHFIFFVQEFNLIDRRELAPLQELIEKLGSKDR
For B1, the binding result (with FLAG-NDR1^3A (human); in the assay with FLAG-NDR1^3E (human); in assay [1]) was “binds” in each case.

B2: mCherry-Mob2 (protein, UniProt Q70IA6 1-237)
chain: MDWLMGKSKAKPNGKKPAAEERKAYLEPEHTKARITDFQFKELVVLPREIDLNEWLASNTTTFFHHINLQYSTISEFCTGETCQTMAVCNTQYYWYDERGKKVKCTAPQYVDFVMSSVQKLVTDEDVFPTKYGREFPSSFESLVRKICRHLFHVLAHIYWAHFKETLALELHGHLNTLYVHFILFAREFNLLDPKETAIMDDLTEVLCSGAGGVHSGGSGDGAGSGGPGAQNHVKER
With B2, the binding result (with FLAG-NDR1^3A (human); in the assay with FLAG-NDR1^3E (human); in assay [1]) was “binds” throughout.

B3: endogenous Mob2 (protein, UniProt Q70IA6 1-237)
chain: B2 chain
Regarding B3, the binding entry in the assay with LAP-tagged NDR1 (human) is “binds”.
